Test results from patent publication US9249154B2, “Compounds and therapeutic use thereof for protein kinase inhibition” (priority 2008, dated 2016).

System: transplanted human colon cancer HT-99
Experiment: Effects on HT99 transplanted nude mice
Assay type: in vivo
Conditions: 60 mg/kg ip, d0, 1; d0 = 0 days after drug treatment; X ± SD

## 2-(4-chlorophenyl)-4-(3-α-thiapyranmethy)-thieno[2,3-d]pyridazine-7-carboxylic acid amide [Compound 11]
  TV d0: 150 ± 15 mm^3

## NC(=O)c1nnc(CC2CCNCC2)c2cc(-c3ccc(Cl)cc3)sc12 [Compound 5, 2-(4-chlorophenyl)-4-(4-piperidinemethy)-thieno[2,3-d]pyridazine-7-carboxylic acid amide]
  TV d0: 150 ± 16 mm^3
